PubChem BioAssay AID504764 – Drosophila RNAi Screening Center | 2011
Assay: 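Genes whose knock-down alters Notch-dependent transcription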 (primary screen). System: Drosophila Kc167 cells. Knock-down reagent: long dsRNA against Drosophila genes. Time to read-out: about 5 days (4 days dsRNA, then 24 h after transfection). Challenge: transfection of constitutively active membrane-tethered Notch lacking the extracellular domain, read 24 h later. Measured: 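Firefly luciferase from an E(spl)m3 reporter with active Notch, plus control-promoter and uninduced reporter wells for normalisation; unnormalised counts, duplicate wells a and b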. Direction: induced reporter light, run 1, well a and induced reporter light, run 1, well b: higher = more light from the Notch target reporter with active Notch; control promoter light, run 1, well a and control promoter light, run 1, well b: higher = more light from the viral control promoter (cell number, transfection, viability); uninduced reporter light, run 1, well a: higher = more light from the Notch target reporter without active Notch. Rule for the call: 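Wells with low control signal or poorly matching duplicates excluded; duplicates averaged; per source plate, z beyond ±2 for induced/control log2 ratio or beyond ±1.8 for induced/uninduced marks a hit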. Meaning of the calls: active = modifier hit (raised or lowered Notch signal); inactive = not a hit.
The screen tested about 22,000 reagents; below is an unselected part of those with a known target gene and a result. Of all reagents, 403 (1.9%) are marked active. 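Unnormalised raw counts per well; ratio z-scores behind the hit calls and whether each hit raises or lowers signal are not deposited.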 The numbers tell different reagents against one gene apart. Reagent sequences are not shown. The record does not give: the amount of reagent.

What did the screen give for CG4597?
induced reporter light, run 1, well a: 2.00e5; induced reporter light, run 1, well b: 1.83e5; control promoter light, run 1, well a: 1.91e5; control promoter light, run 1, well b: 1.37e5; uninduced reporter light, run 1, well a: 10155; call: inactive

For CG14408, what does the deposit list?
induced reporter light, run 1, well a: 1.48e5; induced reporter light, run 1, well b: 1.33e5; control promoter light, run 1, well a: 2.16e5; control promoter light, run 1, well b: 1.82e5; uninduced reporter light, run 1, well a: 13355; call: inactive

What did the screen give for CG5776?
induced reporter light, run 1, well a: 2.43e5; induced reporter light, run 1, well b: 2.44e5; control promoter light, run 1, well a: 1.95e5; control promoter light, run 1, well b: 2.23e5; uninduced reporter light, run 1, well a: 17400; call: inactive

Which result is listed for Kdsr (3-ketodihydrosphingosine reductase)?
induced reporter light, run 1, well a: 2.30e5; induced reporter light, run 1, well b: 1.92e5; control promoter light, run 1, well a: 3.12e5; control promoter light, run 1, well b: 3.03e5; uninduced reporter light, run 1, well a: 13445; call: inactive

Records listed so far whose target name starts with C or c:
CG4597 → induced reporter light, run 1, well a = 2.00e5; induced reporter light, run 1, well b = 1.83e5; control promoter light, run 1, well a = 1.91e5; control promoter light, run 1, well b = 1.37e5; uninduced reporter light, run 1, well a = 10155; call = inactive
CG14408 → induced reporter light, run 1, well a = 1.48e5; induced reporter light, run 1, well b = 1.33e5; control promoter light, run 1, well a = 2.16e5; control promoter light, run 1, well b = 1.82e5; uninduced reporter light, run 1, well a = 13355; call = inactive
CG5776 → induced reporter light, run 1, well a = 2.43e5; induced reporter light, run 1, well b = 2.44e5; control promoter light, run 1, well a = 1.95e5; control promoter light, run 1, well b = 2.23e5; uninduced reporter light, run 1, well a = 17400; call = inactive

The results go on.
What is on record for BORCS5 (BLOC-1 related complex subunit 5)?
induced reporter light, run 1, well a: 1.58e5; induced reporter light, run 1, well b: 1.72e5; control promoter light, run 1, well a: 2.58e5; control promoter light, run 1, well b: 1.87e5; uninduced reporter light, run 1, well a: 12595; call: inactive

For CAH13 (Carbonic anhydrase 13), what was measured?
induced reporter light, run 1, well a: 1.92e5; induced reporter light, run 1, well b: 1.83e5; control promoter light, run 1, well a: 2.26e5; control promoter light, run 1, well b: 2.16e5; uninduced reporter light, run 1, well a: 16320; call: inactive

Which result is listed for CG6015?
induced reporter light, run 1, well a: 1.05e5; induced reporter light, run 1, well b: 1.01e5; control promoter light, run 1, well a: 1.29e5; control promoter light, run 1, well b: 1.40e5; uninduced reporter light, run 1, well a: 7915; call: inactive

Which result is listed for CG11200?
induced reporter light, run 1, well a: 1.10e5; induced reporter light, run 1, well b: 1.42e5; control promoter light, run 1, well a: 1.92e5; control promoter light, run 1, well b: 2.52e5; uninduced reporter light, run 1, well a: 9890; call: inactive

What did the screen give for SdhD (Succinate dehydrogenase, subunit D)?
induced reporter light, run 1, well a: 1.67e5; induced reporter light, run 1, well b: 1.63e5; control promoter light, run 1, well a: 2.12e5; control promoter light, run 1, well b: 2.07e5; uninduced reporter light, run 1, well a: 13405; call: inactive

What is on record for Cpr65Az (Cuticular protein 65Az) #1?
induced reporter light, run 1, well a: 1.64e5; induced reporter light, run 1, well b: 1.57e5; control promoter light, run 1, well a: 1.59e5; control promoter light, run 1, well b: 1.47e5; uninduced reporter light, run 1, well a: 9145; call: inactive

What did the screen give for Cpr65Az (Cuticular protein 65Az) #2?
call: active

What did the screen give for niki (nimA-like kinase)?
induced reporter light, run 1, well a: 1.79e5; induced reporter light, run 1, well b: 1.38e5; control promoter light, run 1, well a: 1.45e5; control promoter light, run 1, well b: 1.51e5; uninduced reporter light, run 1, well a: 9488; call: inactive
